Source: paper PMC10321013
No constants are given. Whether binding was seen depends on the method and setting. For part of these data: Binding seen in cells or lysates may run through a third protein. Some binding calls cover weakened binding; strength is not graded here.

The chains behind the UniProt entries cited, without tags or fusion partners.
UniProt Q93009: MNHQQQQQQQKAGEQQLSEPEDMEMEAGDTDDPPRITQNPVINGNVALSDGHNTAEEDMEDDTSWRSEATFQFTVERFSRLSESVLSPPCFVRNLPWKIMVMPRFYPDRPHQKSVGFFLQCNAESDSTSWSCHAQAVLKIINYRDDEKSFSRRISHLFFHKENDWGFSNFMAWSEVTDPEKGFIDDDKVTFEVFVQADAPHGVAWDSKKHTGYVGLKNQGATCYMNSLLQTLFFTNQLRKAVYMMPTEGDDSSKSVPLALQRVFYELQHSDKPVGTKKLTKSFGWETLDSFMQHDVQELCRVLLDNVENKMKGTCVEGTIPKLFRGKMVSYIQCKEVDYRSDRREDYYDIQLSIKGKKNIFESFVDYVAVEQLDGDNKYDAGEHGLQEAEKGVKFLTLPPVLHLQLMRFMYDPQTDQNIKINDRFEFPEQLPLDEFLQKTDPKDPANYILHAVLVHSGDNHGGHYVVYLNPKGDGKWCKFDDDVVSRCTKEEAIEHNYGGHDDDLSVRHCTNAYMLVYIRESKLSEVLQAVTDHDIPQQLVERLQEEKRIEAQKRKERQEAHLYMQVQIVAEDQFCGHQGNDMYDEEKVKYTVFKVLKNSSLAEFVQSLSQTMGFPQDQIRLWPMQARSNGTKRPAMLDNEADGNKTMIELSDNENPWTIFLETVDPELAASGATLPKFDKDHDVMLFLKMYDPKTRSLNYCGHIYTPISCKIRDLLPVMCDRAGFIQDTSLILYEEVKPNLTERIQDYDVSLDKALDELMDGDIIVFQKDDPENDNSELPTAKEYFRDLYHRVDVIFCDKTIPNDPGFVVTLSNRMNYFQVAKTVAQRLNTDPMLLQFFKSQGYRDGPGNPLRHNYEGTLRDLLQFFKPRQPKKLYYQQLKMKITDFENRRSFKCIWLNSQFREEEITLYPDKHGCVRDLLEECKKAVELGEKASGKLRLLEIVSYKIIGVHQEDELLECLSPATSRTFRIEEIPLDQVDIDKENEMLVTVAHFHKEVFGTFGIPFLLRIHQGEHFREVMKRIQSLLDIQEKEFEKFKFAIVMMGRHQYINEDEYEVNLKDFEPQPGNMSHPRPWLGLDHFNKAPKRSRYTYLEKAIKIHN
UniProt P25490: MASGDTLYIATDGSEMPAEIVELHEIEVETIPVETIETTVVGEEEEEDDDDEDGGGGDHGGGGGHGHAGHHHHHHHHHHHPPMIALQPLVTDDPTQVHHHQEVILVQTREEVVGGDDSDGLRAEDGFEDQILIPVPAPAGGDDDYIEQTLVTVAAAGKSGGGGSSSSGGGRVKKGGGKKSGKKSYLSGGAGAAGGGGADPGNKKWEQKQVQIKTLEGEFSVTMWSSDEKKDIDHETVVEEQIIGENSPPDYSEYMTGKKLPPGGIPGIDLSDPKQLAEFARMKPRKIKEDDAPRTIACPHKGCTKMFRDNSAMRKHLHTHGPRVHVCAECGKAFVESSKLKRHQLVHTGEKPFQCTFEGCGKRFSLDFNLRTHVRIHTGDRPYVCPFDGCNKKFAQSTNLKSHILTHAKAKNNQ

Legend:
[1] = target: Ubiquitin-specific protease 7 (USP7) (human (endogenous in PLC-PRF-5 and HepG2)) (UniProt Q93009); test: proximity ligation; duo-link PLA in PLC-PRF-5 and HepG2 cells; red dots indicate protein interaction
[2] = target: Ubiquitin-specific protease 7 (USP7) (human (endogenous in PLC-PRF-5 and HepG2)) (UniProt Q93009); test: SEC; PLC-PRF-5 cell extracts on Superdex 200 10/300 GL in 1x PBS, 0.5 mL/min; fractions blotted for USP7 and YY1; overlap peaked at fraction 17
[3] = target: Ubiquitin-specific protease 7 (USP7) (human (endogenous in PLC-PRF-5 and HepG2)) (UniProt Q93009); test: co-IP; PLC-PRF-5 and HepG2 cell lysates (0.3% Nonidet P-40 lysis buffer) on antibody-conjugated protein A/G agarose, 12 h; Western blot with USP7 and YY1 antibodies

Measured: binding

Yin-yang-1 (YY1) (from UniProt P25490 1-414)
binds: [1] | [2] | [3]
